Measured data: PubChem BioAssay AID1224826 (NIAID, 2016)
Test: 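Knock-downs that raise or lower Tnf reporter signal after endotoxin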 (primary screen). Cells: RAW264.7 G9 macrophages from mouse bearing reporters for p65 (GFP) and the Tnf promoter (mCherry). Reagent: siRNA pool against mouse genes, 100 nM. Time to read-out: 16 h of LPS stimulation, after 2 days of siRNA transfection. Treatment: bacterial lipopolysaccharide (Salmonella minnesota R595), 10 ng/ml. Read-out: 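Imaged Tnf reporter mCherry in nuclei, minus background, normalised per plate to the median and expressed as robust z-scores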. Reading the numbers: Tnf reporter robust z-score: higher = stronger Tnf promoter reporter signal after LPS. Hit rule: 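a well counts as active at a score of -1.3 or below (Tlr4 knock-down control median) or above 3 (raised signal); controls and wells holding fewer than 50 cells are excluded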. Meaning of the calls: active = Tnf reporter clearly lowered or raised; inactive = no clear change in Tnf reporter.
The deposit covers about 17,000 reagents; this is a part drawn at random. Over the whole deposit, about 1,110 (6.6%) were called active. 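Active means lowered or raised reporter signal; replicate intensities are raw and not normalised per plate.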 A number with no mark means an inactive call. Not all columns of the deposit are shown.

Against Zc3hc1, the entry reads Tnf reporter robust z-score 0.01; fewer than 50 cells in well enough cells in well.
With knock-down of Zic1, the screen gave Tnf reporter robust z-score -0.52; fewer than 50 cells in well enough cells in well.
Gpd2 scored fewer than 50 cells in well fewer than 50 cells per well; well left out of calls.
After knock-down of Vmn2r37, the record shows Tnf reporter robust z-score 0.23; fewer than 50 cells in well enough cells in well.
Silencing of Uck2 resulted in: Tnf reporter robust z-score 1.07; fewer than 50 cells in well enough cells in well.
Against Dnajb2, the entry reads Tnf reporter robust z-score 0.99; fewer than 50 cells in well enough cells in well.
Knock-down of Efcab12 came out at: Tnf reporter robust z-score -0.53; fewer than 50 cells in well enough cells in well.
Arrdc3 showed Tnf reporter robust z-score -0.89; fewer than 50 cells in well enough cells in well.
B2m showed Tnf reporter robust z-score -1.67 (active); fewer than 50 cells in well enough cells in well.
Depletion of Pou3f4 gave: Tnf reporter robust z-score -0.91; fewer than 50 cells in well enough cells in well.
Ces2g showed Tnf reporter robust z-score 0.04; fewer than 50 cells in well enough cells in well.
Depletion of Prep came out at: Tnf reporter robust z-score 0.48; fewer than 50 cells in well enough cells in well.

2 successive entries from above, for reference:
Uck2: Tnf reporter robust z-score = 1.07; fewer than 50 cells in well = enough cells in well
Dnajb2: Tnf reporter robust z-score = 0.99; fewer than 50 cells in well = enough cells in well
